Reference: publication PMC7857027
Results are given in words; binding and its absence hold for the method and conditions named. Binding seen in cells or lysates may run through a third protein. Some binding calls cover weakened binding; strength is not graded here. Blank lines part the entries; values can stand above or below the molecule they belong to.

The chains behind the UniProt entries cited, without tags or fusion partners. Where a name states a change or a piece, a line headed by the entry shows the natural chain unless it says otherwise. A line that says so, or that is headed by a name, gives the form on record, which may keep a tag or linker. Residues count along the entry.
UniProt P14902: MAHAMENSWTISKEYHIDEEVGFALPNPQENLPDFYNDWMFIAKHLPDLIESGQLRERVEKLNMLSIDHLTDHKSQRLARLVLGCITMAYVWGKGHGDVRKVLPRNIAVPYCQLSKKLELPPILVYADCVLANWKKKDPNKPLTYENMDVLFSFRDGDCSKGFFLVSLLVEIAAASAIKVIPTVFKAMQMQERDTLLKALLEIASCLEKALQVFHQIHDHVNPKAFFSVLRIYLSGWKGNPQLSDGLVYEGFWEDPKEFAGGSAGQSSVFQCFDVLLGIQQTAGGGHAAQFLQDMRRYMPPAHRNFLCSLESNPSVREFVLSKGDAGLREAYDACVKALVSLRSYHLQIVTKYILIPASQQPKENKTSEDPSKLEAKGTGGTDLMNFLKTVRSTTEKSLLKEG
truncated GST-fused IDO1 (45 amino acids at the N-terminus removed): residues 46-403 of P14902

What was measured:
[1] = biological target: T1, GBP1 (human (endogenous in A549)) (UniProt P32455); experiment: co-IP; A549 cell lysates after transfection of Flag-IDO1; anti-flag magnetic beads, GBP1 detected; reciprocal capture by GBP1
T1 sequence: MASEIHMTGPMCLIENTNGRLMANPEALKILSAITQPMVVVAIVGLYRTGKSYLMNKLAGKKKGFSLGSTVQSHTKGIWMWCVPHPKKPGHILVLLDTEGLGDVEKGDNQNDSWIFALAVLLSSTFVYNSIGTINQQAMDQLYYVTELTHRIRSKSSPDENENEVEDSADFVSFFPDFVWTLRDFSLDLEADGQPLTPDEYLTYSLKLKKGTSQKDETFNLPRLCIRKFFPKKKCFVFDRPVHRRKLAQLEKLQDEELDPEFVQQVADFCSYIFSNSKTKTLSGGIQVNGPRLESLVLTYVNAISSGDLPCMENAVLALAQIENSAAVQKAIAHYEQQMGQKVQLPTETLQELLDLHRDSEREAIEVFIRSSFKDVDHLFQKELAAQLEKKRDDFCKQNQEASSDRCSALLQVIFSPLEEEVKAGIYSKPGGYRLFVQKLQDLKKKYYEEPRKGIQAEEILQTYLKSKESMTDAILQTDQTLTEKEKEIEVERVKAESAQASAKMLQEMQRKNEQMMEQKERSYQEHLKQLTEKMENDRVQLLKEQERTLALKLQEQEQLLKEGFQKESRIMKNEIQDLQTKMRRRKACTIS

[2] = biological target: Flag-tagged IDO1 (indoleamine 2,3-dioxygenase 1) (UniProt P14902); experiment: as above
GST fused IDO1 = GST fused IDO1 (UniProt P14902); experiment: pull-down; GST pull-down in vitro: GST-fused IDO1 (whole or truncated) with in vitro transcribed GBP1; only the target purified
[3] = biological target: truncated GST-fused IDO1 (45 amino acids at the N-terminus removed) (UniProt P14902); experiment: as above

binding [1]: binds
Molecule: Flag-tagged IDO1 (indoleamine 2,3-dioxygenase 1) (from UniProt P14902 1-403) (enzyme)

binding [2]: binds
B1: GBP1 (protein, UniProt P32455 1-592)
chain: T1 sequence

binding (GST fused IDO1): binds
binding [3]: binds
B2: in vitro transcribed GBP1 (protein, UniProt P32455 1-592)
chain: T1 sequence
